This is one part of the list. The main result of the screen is listed elsewhere. These columns were measured beside it and carry no call. The list favours compounds with an active or inconclusive main result. Words in brackets tell the shape of the fitted curve; partial curves, single points and poor fits give uncertain potencies.
Assay: qHTS Assay for Lipid Storage Modulators in Drosophila S3 Cells;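 on cell number change: cells counted by Cell Tracker Red CMTPX staining in the red channel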
Settings: BODIPY lipid droplet fluorescence, 18-24 h; for cell number change: measured here: cell count max response, cells fed with added oleic acid
Outline: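 Laser-scanning cytometry quantifies lipid droplet accumulation (500–530 nm total intensity; droplet/cell object ratio) in oleic acid-fed (400 uM added) Drosophila S3 cells treated with a concentration series. 20 uM Triacsin C defined 100% inhibition.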

[1] = measured here: lipid fluorescence (Fed channel) AC50, cells fed with added oleic acid
[2] = measured here: cell number channel AC50, cells fed with added oleic acid

Structure (SMILES) | cell number change | AC50 [1] | AC50 [2]
CC/C=C/C(=O)N1CC2(CC(c3cccc(NC(=O)c4ccccc4)c3)=NO2)C[C@@H]1C(N)=O (stereo partly specified) | -4.31% | 0.13 µM [rising, full curve, poor fit] | 
CNc1nc(-c2ccc3c(c2)CCN3C(=O)CC(C)(C)C)c(C)s1 | -21.1% | 16.4 µM [falling, partial curve] | 
COCCN1CN(S(=O)(=O)c2ccccc2)c2nc3ccccc3nc21 |  | 0.731 µM [rising, full curve] | 0.651 µM [rising, full curve]
c1ccc(-n2cnnc2SCc2nc3ccccc3s2)cc1 |  |  | 0.517 µM [rising, single point]
NC(=O)C1CCCN(S(=O)(=O)c2ccc(Br)cc2)C1 (stereo unspecified) | -0.734% | 29.1 µM [rising, single point] | 
CSc1cc(N2CCOCC2)nc(-c2ccccc2Cl)n1 |  | 2.91 µM [rising, single point] | 2.06 µM [falling, partial curve, poor fit]
CC1(C)CC(Nc2ccc(C(F)(F)F)cc2[N+](=O)[O-])CC(C)(C)N1 | -40.6% |  | 29.1 µM [falling, single point]
O=c1c2c3c(sc2n2cnnc2n1Cc1ccccc1)CN(Cc1ccccc1)CC3 |  |  | 0.326 µM [rising, full curve]
Nc1c(C(=O)NCc2ccc(F)cc2)c2nc3ccccc3nc2n1CCCN1CCOCC1 | -183% |  | 
Cc1occc1-c1nnc(SCC(=O)NC2CCCC2)n1C | 21.8% | 29.1 µM [rising, single point] | 0.731 µM [rising, full curve, poor fit]
Cc1ccc(S(=O)(=O)Nc2nc3ccccc3s2)cc1 | -83.6% | 1.64 µM [falling, partial curve, poor fit] | 23.1 µM [falling, partial curve]
CC(C)(C)c1ccc(C(=O)N2CCN(C(=O)c3ccco3)CC2)cc1 | -9.05% |  | 
Cc1ccccc1NC(=O)Cc1nc(COC(=O)c2ccc(C(F)(F)F)cc2)cs1 | -2.27% | 3.26 µM [rising, single point] | 
O=C(CSc1nnc(-c2cccnc2)n1Cc1ccco1)NCc1ccc2c(c1)OCO2 | 94.2% |  | 29.1 µM [rising, single point]
C/C(=N\Nc1nc(C(C)(C)C)cs1)c1ccccc1 | -8.84% | 0.58 µM [rising, single point] | 
C/C(=N\NC(=O)c1cc(-c2ccc(C)s2)[nH]n1)c1ccco1 | -65.2% | 7.31 µM [rising, partial curve] | 10.3 µM [falling, single point]
CCOc1ccc(S(=O)(=O)N(CC)CC)cc1N | 54.5% |  | 
CCCN(C(=O)COC(=O)CCOc1ccc(C)cc1)c1c(N)n(Cc2ccccc2)c(=O)[nH]c1=O | -38.1% | 29.1 µM [falling, single point] | 29.1 µM [falling, single point]
CC(NC(=O)c1ccc(=O)oc1)c1ccccc1 (stereo unspecified) | 15.9% | 0.231 µM [falling, full curve, poor fit] | 
COC(=O)Cc1cc(=O)n2[nH]c(C)cc2n1 | -45.2% |  | 0.116 µM [falling, full curve]
CNC(=O)c1sc2nc(-c3ccc(OC)cc3)cn2c1C | -65.2% | 18.4 µM [falling, partial curve] | 29.1 µM [falling, single point]

Structure (SMILES) | cell number change | AC50 [1] | AC50 [2]
CCOc1cc(/C=N/Nc2nc(N3CCCC3)nc(N3CCCC3)n2)ccc1O | -27.2% | 29.1 µM [falling, single point] | 
Cc1ccc(OCC(=O)Nc2ccccc2C(=O)NC2CC2)cc1 | 10.7% | 1.84 µM [rising, partial curve, poor fit] | 
CC(=O)N1CCc2cc(S(=O)(=O)N3CCOCC3)ccc21 | -34.4% | 29.1 µM [falling, single point] | 29.1 µM [falling, single point]
Cc1cccc(C(=O)NCC(=O)OCC(=O)N2CCCCC2)c1 | -53.8% | 29.1 µM [falling, single point] | 29.1 µM [falling, single point]
Cc1ccc(-c2cccc(CN3CCN(C(C)C)C(CCO)C3)c2)o1 (stereo unspecified) | 6.02% | 29.1 µM [rising, single point] | 
O=C(CCCCCn1c(=S)[nH]c2cc3c(cc2c1=O)OCO3)N1CCN(c2ccc(F)cc2)CC1 | 17% | 6.51 µM [rising, single point] | 
COc1ccc(NC(=O)CN(C)C(=O)c2cn(-c3ccccc3)nc2-c2cccnc2)cc1 | -0.362% | 0.082 µM [rising, full curve, poor fit] | 
CCC[N+](C)(C)C(C)C(OC(C)=O)c1ccccc1 (stereo unspecified) | 32.4% |  | 29.1 µM [rising, single point]
CC(C)C(=O)O/N=C(\N)c1ccccn1 | 33.1% |  | 29.1 µM [rising, single point]
Cc1nnc(SCC(=O)c2ccc(Cl)cc2)n(N)c1=O | 10.1% | 0.291 µM [rising, full curve, poor fit] | 
O=C(Nc1cc(Cl)ccc1O)C1CC(c2c(F)cccc2Cl)=NO1 (stereo unspecified) | -6.99% | 16.4 µM [falling, single point] | 
O=C(CSc1nc2ccc(NC(=O)c3ccccc3C(=O)O)cc2s1)Nc1ccc(F)c([N+](=O)[O-])c1 | -38.1% |  | 20.6 µM [falling, partial curve, poor fit]
COC(=O)c1cc(OC)c(OC)cc1NC(=O)c1cccc(OC)c1OC | -2.77% | 0.146 µM [falling, full curve] | 
O=C(CN1C(=O)S/C(=C\c2ccccn2)C1=O)Nc1ccc(F)cc1 | 6.52% | 6.51 µM [rising, single point] | 
CCCCCCNC(=O)C(C#N)c1nc2ccccc2nc1N1CCCC1 (stereo unspecified) | 20.8% |  | 
CC(OC1=CC(=O)CCC1)C(=O)c1ccccc1 (stereo unspecified) | -8.86% |  | 
OCCC1CN(C2CCC2)CCN1Cc1ccc(F)c(F)c1 (stereo unspecified) | -11.5% | 29.1 µM [rising, single point] | 
CCC(=O)Nc1ccc(C(=O)CN2C(=O)NC3(CCCCCC3)C2=O)cc1 | 22.8% | 1.64 µM [rising, partial curve] | 
CCCCN1CNC(=S)N(c2cc(C)ccc2C)C1 | -57.9% | 29.1 µM [falling, single point] | 29.1 µM [falling, single point]
CCOc1ccc(NC(=O)CCC(=O)OC)cc1 | 0.703% | 6.51 µM [falling, single point] | 2.31 µM [falling, single point]
O=C(c1ccc2c(c1)OCCO2)N1CCN(Cc2ccccc2)CC1 | 7.78% | 0.184 µM [rising, full curve] | 

5 compounds drawn at random from the list so far:
Structure (SMILES) | cell number change | AC50 [1] | AC50 [2]
Cc1nnc(SCC(=O)c2ccc(Cl)cc2)n(N)c1=O | 10.1% | 0.291 µM [rising, full curve, poor fit] | 
O=C(CCCCCn1c(=S)[nH]c2cc3c(cc2c1=O)OCO3)N1CCN(c2ccc(F)cc2)CC1 | 17% | 6.51 µM [rising, single point] | 
O=C(c1ccc2c(c1)OCCO2)N1CCN(Cc2ccccc2)CC1 | 7.78% | 0.184 µM [rising, full curve] | 
CCOc1cc(/C=N/Nc2nc(N3CCCC3)nc(N3CCCC3)n2)ccc1O | -27.2% | 29.1 µM [falling, single point] | 
Cc1ccc(-c2cccc(CN3CCN(C(C)C)C(CCO)C3)c2)o1 (stereo unspecified) | 6.02% | 29.1 µM [rising, single point] | 

The listing continues:

Structure (SMILES) | cell number change | AC50 [1] | AC50 [2]
COc1cc(OC)cc(C(=O)NCCCNC(=O)c2cccnc2)c1 | -10.5% |  | 
CCOc1ccc(S(=O)(=O)N2Cc3ccccc3CC2C(=O)NCCCn2ccnc2)cc1 (stereo unspecified) | -18.1% | 0.651 µM [rising, full curve] | 
Cc1cccc(C)c1OCc1cc(C(=O)N2CCC(c3ccccc3)CC2)no1 | 31.8% | 18.4 µM [rising, single point] | 
COC(=O)N/N=C/c1cn(Cc2c(Cl)cccc2Cl)c2ccccc12 | -2.52% | 13 µM [rising, partial curve] | 
CC(=O)c1c(C)[nH]c(C(=O)OCC(=O)c2c(N)n(CC(C)C)c(=O)n(C)c2=O)c1C | -25.4% | 0.326 µM [falling, partial curve, poor fit] | 
O=[N+]([O-])c1ccc(NCc2ccccc2)nc1 | -13.3% |  | 0.082 µM [falling, full curve, poor fit]
Oc1ccc(-c2nnc(SCc3ccccc3)o2)cc1 | 43.5% | 29.1 µM [rising, partial curve, poor fit] | 
O=C(Nc1ccc(N2CCCCC2)cc1)c1cc(S(=O)(=O)N2CCOCC2)ccc1F |  | 13 µM [falling, partial curve] | 
Cc1ccc(-c2[nH]nc(N)c2N=Nc2ccccc2C)cc1 | -40.6% | 23.1 µM [falling, single point] | 20.6 µM [falling, single point]
O=C(c1cc([N+](=O)[O-])ccc1N1CCOCC1)N1CCOCC1 | -3.25% | 0.82 µM [falling, single point] | 
Cc1sc2nc(SCC(=O)NCc3ccco3)n(Cc3ccccc3)c(=O)c2c1C | -28.5% |  | 
CC(=O)Nc1coc2ccc(Br)cc12 | 18.1% |  | 0.366 µM [rising, full curve, poor fit]
O=C(C[n+]1ccccc1)N/N=C/c1cc(Br)cc(Br)c1O | -26.1% | 23.1 µM [falling, single point] | 
CCN(CC(=O)NCc1ccc(Cl)cc1)C(=O)CSc1cc(C)ccc1C | 111% |  | 14.6 µM [rising, partial curve]
O=C(Nc1ccc2c(c1)OCCO2)C1CC(c2ccccc2Cl)=NO1 (stereo unspecified) | -2.13% | 0.82 µM [falling, full curve] | 
CCC(C(=O)N1CCOCC1)n1nc(C)n2c(cc3cc(C)ccc32)c1=O (stereo unspecified) | -11.1% | 29.1 µM [falling, single point] | 
CC(=O)c1ccc(N2Cc3ccccc3/C2=N\C(=O)Nc2ccc(Cl)cc2)cc1 | 14.5% |  | 
COc1ccc(NC(=O)c2ccc(CNS(=O)(=O)c3cccc(OC)c3)cc2)cc1 | -18.1% |  | 
COc1cccc(NC(=O)CN(C)C(=O)c2cc3c(s2)CCC(C)C3)c1 (stereo unspecified) | 38.3% | 18.4 µM [rising, single point] | 20.6 µM [rising, single point]

Reference: PubChem BioAssay AID2685 (National Center for Advancing Translational Sciences (NCATS), 2010)
